Results on one sequence are retold here after publication PMC7821693, “Revealing biophysical properties of KfrA-type proteins as a novel class of cytoskeletal, coiled-coil plasmid-encoded proteins”.

Weaker means in comparison with the reference protein, sequence or condition of that experiment. Tags and fusion partners may be left off the protein sequences shown.

Data set [1] deals with T1, KfrA R751 (His6-KfrAR751) (IncP-1beta plasmid R751) (UniProt P71173).
T1 sequence (looked up): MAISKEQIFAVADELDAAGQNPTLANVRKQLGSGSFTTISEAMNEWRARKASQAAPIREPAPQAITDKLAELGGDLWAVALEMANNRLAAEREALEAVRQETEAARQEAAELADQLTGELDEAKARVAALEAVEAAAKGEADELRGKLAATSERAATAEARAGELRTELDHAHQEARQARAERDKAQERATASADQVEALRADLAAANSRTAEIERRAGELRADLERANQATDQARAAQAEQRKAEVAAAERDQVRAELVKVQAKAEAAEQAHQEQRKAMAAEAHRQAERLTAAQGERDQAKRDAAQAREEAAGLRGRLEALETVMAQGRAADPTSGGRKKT
The data set is described as follows: competition with a labelled probe. Particulars: vs labeled OKR751, slightly decreased binding; EMSA: 50 mM Tris-HCl pH 8.0, 10 mM MgCl2, 50 mM NaCl, 10 pmol DNA, 30 min at 37 C (legend: 25 C), 2.5% agarose in 0.5x TBE; recombinant protein; residues 1-342.

The target in data set [2] is T2, KfrA RA3 (His6-KfrARA3) (IncU plasmid RA3) (UniProt Q209P3).
T2 sequence (looked up): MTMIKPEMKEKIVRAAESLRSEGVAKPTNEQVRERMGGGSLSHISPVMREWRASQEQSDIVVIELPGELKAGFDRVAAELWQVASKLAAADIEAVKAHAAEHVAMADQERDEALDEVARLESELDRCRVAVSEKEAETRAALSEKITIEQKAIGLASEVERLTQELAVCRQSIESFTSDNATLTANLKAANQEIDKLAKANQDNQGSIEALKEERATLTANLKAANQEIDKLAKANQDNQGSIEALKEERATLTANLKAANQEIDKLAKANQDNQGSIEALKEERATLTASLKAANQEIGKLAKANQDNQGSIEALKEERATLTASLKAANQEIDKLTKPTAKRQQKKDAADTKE
The data set is described as follows: competition with a labelled probe. As to conditions: vs labeled OKRA3, slightly decreased binding; EMSA: 50 mM Tris-HCl pH 8.0, 10 mM MgCl2, 50 mM NaCl, 10 pmol DNA, 30 min at 37 C (legend: 25 C), 2.5% agarose in 0.5x TBE; recombinant protein; residues 1-355. In general terms: Mobility shift assays separate free from complexed probe on a gel.

For “AATTCGTTGTATTGTATGTATTGTATGTATTGTATTATAAG / TCGACTTATAATACAATACATACAATACATACAATACAACG [OG1/OD1 (#5/#6), used as nonspecific DNA]”, the binding result in data set [1] and in data set [2] was “binds more weakly” in each case.
